Measured values: publication PMC6368580
No constants are given. Whether binding was seen depends on the method and setting. Binding seen in cells or lysates may run through a third protein. These calls come from enrichment with a bait or labelling near it, and not all partners need be listed.

Amino acid sequences for entries named in this document (tags omitted). A change or cut given only in a name is not applied to a line headed by its entry. Chains listed by the source or under a name are the forms on record and can include a tag or linker.
HA-CIC (Q96RK0, form named): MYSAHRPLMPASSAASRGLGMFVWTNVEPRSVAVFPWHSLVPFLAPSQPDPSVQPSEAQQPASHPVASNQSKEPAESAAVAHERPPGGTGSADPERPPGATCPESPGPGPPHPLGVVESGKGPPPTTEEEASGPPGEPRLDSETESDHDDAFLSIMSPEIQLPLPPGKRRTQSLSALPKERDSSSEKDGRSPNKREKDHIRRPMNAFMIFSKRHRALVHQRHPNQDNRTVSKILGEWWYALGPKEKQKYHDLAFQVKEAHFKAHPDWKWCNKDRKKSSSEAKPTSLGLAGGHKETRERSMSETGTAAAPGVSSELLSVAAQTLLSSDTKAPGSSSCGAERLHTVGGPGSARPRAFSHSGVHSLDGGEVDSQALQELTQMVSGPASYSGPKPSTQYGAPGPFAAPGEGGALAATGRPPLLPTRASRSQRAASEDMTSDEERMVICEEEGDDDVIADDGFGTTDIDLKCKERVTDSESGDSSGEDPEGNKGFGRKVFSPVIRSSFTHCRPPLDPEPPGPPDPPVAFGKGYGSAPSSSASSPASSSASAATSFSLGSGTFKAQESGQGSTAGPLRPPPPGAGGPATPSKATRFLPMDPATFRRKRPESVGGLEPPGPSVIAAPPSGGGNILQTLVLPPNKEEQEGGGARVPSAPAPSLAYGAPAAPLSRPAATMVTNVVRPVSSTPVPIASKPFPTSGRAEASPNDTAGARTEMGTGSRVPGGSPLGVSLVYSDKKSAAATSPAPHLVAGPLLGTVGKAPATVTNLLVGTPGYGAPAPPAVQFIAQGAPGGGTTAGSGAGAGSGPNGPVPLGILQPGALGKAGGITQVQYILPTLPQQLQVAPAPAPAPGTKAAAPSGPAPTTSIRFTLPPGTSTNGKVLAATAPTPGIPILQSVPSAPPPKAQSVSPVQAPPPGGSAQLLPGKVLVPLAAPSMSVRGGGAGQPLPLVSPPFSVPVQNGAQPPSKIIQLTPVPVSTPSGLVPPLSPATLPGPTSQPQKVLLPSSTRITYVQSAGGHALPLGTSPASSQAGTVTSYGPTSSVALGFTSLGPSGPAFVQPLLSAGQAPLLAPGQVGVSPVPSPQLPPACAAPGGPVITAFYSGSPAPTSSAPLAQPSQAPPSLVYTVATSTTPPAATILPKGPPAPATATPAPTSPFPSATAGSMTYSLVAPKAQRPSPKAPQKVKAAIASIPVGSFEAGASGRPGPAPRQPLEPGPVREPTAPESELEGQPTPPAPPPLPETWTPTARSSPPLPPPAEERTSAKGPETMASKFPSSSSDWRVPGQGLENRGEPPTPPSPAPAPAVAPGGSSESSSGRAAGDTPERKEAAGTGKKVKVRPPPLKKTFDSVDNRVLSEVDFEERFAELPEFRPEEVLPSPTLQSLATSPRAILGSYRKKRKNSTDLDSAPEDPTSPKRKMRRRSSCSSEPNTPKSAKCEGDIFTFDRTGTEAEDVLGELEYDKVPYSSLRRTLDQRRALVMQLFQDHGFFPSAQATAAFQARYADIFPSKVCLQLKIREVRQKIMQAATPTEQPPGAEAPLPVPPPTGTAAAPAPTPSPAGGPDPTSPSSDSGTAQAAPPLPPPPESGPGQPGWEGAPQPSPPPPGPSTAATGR

Biological target: HA-CIC (capicua, CIC-S isoform, wild type) (UniProt Q96RK0)
Test: affinity purification with mass spectrometry; mass spectrometry on HA-immunoprecipitated material from MG132-treated HA-CIC transfected U87 cells

binding: binds
B1: PRAJA1 (PJA1), endogenous in U87 cells (enzyme, UniProt Q8NG27 1-643)
chain: MGQESSKPVWPNPTGGYQSNTGRRYGRRHAYVSFRPPTSQRERIASQRKTNSEVPMHRSAPSQTTKRSRSPFSTTRRSWDDSESSGTNLNIDNEDYSRYPPREYRASGSRRGMAYGHIDSYGADDSEEEGAGPVERPPVRGKTGKFKDDKLYDPEKGARSLAGPPPHFSSFSRDVREERDKLDPVPAARCSASRADFLPQSSVASQSSSEGKLATKGDSSERERREQNLPARPSRAPVSICGGGENTSKSAEEPVVRPKIRNLASPNCVKPKIFFDTDDDDDMPHSTSRWRDTANDNEGHSDGLARRGRGESSSGYPEPKYPEDKREARSDQVKPEKVPRRRRTMADPDFWTHSDDYYKYCDEDSDSDKEWIAALRRKYRSREQTLSSSGESWETLPGKEEREPPQAKVSASTGTSPGPGASASAGAGAGASAGSNGSNYLEEVREPSLQEEQASLEEGEIPWLQYHENDSSSEGDNDSGHELMQPGVFMLDGNNNLEDDSSVSEDLEVDWSLFDGFADGLGVAEAISYVDPQFLTYMALEERLAQAMETALAHLESLAVDVEVANPPASKESIDALPEILVTEDHGAVGQEMCCPICCSEYVKGEVATELPCHHYFHKPCVSIWLQKSGTCPVCRCMFPPPL
